Assay results from doi:10.1101/168518.
Where two headings read alike, the source gives them in different places. These are yes or no findings as the source states them, for the method shown. For some assays here: In cells and extracts the contact can be indirect. Some binding calls cover weakened binding; strength is not graded here. For some assays here: Where a sequence is shown, tags or fusion partners need not be part of it.

The chains behind the UniProt entries cited, without tags or fusion partners. Residues count along the entry.
UniProt Q8TDY2: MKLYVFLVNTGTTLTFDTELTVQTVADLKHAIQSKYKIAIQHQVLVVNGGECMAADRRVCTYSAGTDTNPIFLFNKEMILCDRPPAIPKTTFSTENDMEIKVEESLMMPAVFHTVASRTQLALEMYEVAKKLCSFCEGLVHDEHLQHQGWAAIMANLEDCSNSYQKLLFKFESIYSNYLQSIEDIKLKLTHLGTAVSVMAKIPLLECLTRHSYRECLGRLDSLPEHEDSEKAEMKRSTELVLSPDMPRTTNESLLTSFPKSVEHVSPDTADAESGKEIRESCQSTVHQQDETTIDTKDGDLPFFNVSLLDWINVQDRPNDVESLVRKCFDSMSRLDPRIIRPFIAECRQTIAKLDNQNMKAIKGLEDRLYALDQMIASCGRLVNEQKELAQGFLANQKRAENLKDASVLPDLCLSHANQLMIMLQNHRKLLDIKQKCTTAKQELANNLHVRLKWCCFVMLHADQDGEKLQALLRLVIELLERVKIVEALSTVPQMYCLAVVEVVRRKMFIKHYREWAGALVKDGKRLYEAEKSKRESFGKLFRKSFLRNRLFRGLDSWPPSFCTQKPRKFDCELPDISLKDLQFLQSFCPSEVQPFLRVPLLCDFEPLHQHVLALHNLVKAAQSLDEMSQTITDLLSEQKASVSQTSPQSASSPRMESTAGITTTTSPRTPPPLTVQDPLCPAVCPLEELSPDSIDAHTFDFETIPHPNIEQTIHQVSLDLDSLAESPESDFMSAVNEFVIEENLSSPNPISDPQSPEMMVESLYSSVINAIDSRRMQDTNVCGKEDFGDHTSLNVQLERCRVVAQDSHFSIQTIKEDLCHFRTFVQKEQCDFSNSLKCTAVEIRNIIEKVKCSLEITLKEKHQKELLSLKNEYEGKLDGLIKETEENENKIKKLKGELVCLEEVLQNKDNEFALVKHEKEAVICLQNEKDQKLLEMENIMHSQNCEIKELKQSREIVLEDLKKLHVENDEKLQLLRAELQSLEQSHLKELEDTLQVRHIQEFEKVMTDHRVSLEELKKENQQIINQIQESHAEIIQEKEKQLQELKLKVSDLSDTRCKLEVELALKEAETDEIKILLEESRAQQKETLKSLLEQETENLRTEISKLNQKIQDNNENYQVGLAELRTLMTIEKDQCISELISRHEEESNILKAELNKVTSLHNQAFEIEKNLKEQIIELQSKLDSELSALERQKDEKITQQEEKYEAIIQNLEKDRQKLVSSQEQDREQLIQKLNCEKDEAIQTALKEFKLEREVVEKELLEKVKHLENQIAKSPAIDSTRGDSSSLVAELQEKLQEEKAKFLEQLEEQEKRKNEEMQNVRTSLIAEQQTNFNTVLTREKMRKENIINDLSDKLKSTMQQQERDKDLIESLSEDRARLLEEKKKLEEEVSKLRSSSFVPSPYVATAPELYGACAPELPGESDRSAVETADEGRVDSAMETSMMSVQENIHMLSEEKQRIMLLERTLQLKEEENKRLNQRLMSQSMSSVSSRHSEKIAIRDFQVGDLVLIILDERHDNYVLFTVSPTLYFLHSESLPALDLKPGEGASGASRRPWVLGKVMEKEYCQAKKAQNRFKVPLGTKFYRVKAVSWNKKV
UniProt Q9NT62: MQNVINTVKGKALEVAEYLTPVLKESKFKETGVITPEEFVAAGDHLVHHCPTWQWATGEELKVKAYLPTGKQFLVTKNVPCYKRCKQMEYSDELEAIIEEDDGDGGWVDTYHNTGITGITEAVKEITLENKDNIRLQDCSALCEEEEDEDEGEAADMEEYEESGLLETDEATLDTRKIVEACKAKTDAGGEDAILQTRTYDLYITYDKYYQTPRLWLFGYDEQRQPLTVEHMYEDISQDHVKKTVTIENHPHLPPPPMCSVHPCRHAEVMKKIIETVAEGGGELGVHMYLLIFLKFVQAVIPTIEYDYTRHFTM
UniProt Q14457: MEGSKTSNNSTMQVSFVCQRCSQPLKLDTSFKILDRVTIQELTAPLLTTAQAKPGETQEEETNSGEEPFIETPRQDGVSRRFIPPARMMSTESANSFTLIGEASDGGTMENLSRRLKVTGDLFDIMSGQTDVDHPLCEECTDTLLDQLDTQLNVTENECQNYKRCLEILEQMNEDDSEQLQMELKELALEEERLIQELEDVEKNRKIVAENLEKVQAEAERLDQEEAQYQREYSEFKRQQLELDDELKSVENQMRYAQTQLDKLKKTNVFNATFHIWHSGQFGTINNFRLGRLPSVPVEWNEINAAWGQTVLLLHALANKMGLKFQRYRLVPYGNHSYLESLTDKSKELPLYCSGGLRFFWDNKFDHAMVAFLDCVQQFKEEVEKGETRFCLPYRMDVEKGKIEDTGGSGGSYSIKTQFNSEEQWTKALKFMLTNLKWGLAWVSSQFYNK
UniProt Q5JRA6, residues 23-1907: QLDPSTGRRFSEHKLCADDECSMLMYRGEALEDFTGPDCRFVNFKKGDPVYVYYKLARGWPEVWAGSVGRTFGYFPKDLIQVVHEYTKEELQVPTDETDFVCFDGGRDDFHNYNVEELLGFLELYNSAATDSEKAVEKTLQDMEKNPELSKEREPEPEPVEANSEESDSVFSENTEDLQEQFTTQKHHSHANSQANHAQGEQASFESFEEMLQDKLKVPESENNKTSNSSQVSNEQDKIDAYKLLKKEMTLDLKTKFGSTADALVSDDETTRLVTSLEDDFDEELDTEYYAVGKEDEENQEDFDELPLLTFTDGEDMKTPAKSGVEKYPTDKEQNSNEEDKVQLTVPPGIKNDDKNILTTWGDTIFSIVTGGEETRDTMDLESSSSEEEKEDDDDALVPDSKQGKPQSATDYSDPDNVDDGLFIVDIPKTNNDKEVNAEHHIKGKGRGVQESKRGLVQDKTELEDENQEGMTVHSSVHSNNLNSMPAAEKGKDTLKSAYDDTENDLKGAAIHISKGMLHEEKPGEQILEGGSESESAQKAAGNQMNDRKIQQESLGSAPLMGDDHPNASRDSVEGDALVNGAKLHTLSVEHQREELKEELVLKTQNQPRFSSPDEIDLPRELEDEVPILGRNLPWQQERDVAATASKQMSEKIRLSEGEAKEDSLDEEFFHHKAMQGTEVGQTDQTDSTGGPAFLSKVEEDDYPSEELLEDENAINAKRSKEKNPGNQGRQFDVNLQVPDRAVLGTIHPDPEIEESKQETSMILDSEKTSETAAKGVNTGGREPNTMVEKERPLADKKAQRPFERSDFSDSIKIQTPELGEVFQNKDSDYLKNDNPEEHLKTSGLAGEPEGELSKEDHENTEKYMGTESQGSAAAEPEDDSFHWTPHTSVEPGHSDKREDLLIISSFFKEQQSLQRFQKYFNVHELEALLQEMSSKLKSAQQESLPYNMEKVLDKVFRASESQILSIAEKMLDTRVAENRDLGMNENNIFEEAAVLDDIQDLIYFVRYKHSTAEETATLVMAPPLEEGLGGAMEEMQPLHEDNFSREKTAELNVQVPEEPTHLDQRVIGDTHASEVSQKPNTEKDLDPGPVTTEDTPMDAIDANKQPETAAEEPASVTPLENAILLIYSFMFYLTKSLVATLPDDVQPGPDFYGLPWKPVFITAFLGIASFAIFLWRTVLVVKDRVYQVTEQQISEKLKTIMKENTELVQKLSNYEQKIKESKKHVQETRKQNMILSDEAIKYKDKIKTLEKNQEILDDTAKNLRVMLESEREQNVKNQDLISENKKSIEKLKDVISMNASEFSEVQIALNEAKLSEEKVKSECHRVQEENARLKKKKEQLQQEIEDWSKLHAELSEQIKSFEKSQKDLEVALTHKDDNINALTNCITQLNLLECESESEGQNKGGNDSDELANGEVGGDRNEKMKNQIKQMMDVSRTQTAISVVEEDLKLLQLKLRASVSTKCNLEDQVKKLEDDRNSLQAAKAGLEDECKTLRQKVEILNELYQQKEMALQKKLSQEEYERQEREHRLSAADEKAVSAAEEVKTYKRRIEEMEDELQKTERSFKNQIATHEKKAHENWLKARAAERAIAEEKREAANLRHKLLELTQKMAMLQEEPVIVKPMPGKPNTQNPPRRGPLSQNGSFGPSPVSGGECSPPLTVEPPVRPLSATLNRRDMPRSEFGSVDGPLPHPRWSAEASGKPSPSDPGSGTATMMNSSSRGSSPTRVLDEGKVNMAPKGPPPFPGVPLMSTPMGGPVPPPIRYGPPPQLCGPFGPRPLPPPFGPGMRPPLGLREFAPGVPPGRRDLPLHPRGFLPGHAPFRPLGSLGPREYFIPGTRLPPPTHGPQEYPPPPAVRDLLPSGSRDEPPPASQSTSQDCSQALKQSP

How the values were obtained:
FLAG-SEC12 [1] = target: T1, FLAG-SEC12 (UniProt Q9HCU5); experiment: co-IP
T1 sequence: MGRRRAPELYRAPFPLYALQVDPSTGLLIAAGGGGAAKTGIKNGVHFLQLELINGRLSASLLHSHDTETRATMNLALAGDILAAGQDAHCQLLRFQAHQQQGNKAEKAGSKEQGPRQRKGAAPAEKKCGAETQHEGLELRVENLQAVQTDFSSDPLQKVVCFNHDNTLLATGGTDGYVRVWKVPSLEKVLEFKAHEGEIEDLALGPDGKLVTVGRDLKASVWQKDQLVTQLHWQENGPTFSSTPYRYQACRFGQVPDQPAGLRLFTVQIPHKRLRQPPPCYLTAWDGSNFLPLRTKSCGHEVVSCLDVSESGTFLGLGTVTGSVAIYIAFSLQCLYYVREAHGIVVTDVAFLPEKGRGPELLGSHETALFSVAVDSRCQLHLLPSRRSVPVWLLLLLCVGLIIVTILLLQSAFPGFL

[2] = target: T2, SEC12 (endogenous) (human (endogenous in HeLa)) (UniProt Q9HCU5); experiment: co-IP
T2 sequence: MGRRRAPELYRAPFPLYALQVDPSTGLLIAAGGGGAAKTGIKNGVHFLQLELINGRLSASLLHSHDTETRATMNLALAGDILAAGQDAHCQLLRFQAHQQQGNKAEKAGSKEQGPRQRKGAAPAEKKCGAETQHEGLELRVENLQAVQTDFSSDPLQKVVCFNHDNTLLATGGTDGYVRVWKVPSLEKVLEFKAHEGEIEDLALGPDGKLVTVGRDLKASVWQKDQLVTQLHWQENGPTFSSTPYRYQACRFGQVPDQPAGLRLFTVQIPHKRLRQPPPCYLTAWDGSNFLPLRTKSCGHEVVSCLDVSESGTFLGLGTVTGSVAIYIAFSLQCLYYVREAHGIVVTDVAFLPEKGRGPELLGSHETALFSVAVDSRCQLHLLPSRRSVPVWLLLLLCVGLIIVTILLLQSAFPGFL

FLAG-FIP200 = FLAG-FIP200 (UniProt Q8TDY2); experiment: co-IP
[3] = target: T2, SEC12 (endogenous) (human (endogenous in HeLa)); experiment: native gel or EMSA
[4] = target: FIP200 (endogenous) (human (endogenous in HEK293T and HeLa)) (UniProt Q8TDY2); experiment: co-IP
FLAG-SEC12 [5] = target: T1, FLAG-SEC12; experiment: co-IP; remark: listed apart in the source

For “ATG3 (endogenous) (from UniProt Q9NT62 1-314)”, the binding (FLAG-SEC12 [1]) was “no binding”.

With “BECN1 (endogenous) (from UniProt Q14457 1-450)” the binding (FLAG-SEC12 [1]) was “no binding”.

With “FIP200 (endogenous) (from UniProt Q8TDY2 1-1594)” the binding [2] was “binds” and the binding (FLAG-SEC12 [1]) was “binds”.

With “HA-SEC12 (240-386), C-terminal half of the SEC12 cytoplasmic domain (from UniProt Q9HCU5 240-386) (domain or fragment)” the binding (FLAG-FIP200) was “binds”.

With “TANGO1 (endogenous) (from UniProt Q5JRA6 23-1907)” the binding [3] was “binds”.

B1: SEC12 (endogenous) (protein, UniProt Q9HCU5 1-417)
chain: MGRRRAPELYRAPFPLYALQVDPSTGLLIAAGGGGAAKTGIKNGVHFLQLELINGRLSASLLHSHDTETRATMNLALAGDILAAGQDAHCQLLRFQAHQQQGNKAEKAGSKEQGPRQRKGAAPAEKKCGAETQHEGLELRVENLQAVQTDFSSDPLQKVVCFNHDNTLLATGGTDGYVRVWKVPSLEKVLEFKAHEGEIEDLALGPDGKLVTVGRDLKASVWQKDQLVTQLHWQENGPTFSSTPYRYQACRFGQVPDQPAGLRLFTVQIPHKRLRQPPPCYLTAWDGSNFLPLRTKSCGHEVVSCLDVSESGTFLGLGTVTGSVAIYIAFSLQCLYYVREAHGIVVTDVAFLPEKGRGPELLGSHETALFSVAVDSRCQLHLLPSRRSVPVWLLLLLCVGLIIVTILLLQSAFPGFL
B1 was tested, and the binding [4] was “binds”.

B2: WIPI2 (endogenous) (protein, UniProt Q9Y4P8 1-454)
chain: MNLASQSGEAGAGQLLFANFNQDNTEVKGASRAAGLGRRAVVWSLAVGSKSGYKFFSLSSVDKLEQIYECTDTEDVCIVERLFSSSLVAIVSLKAPRKLKVCHFKKGTEICNYSYSNTILAVKLNRQRLIVCLEESLYIHNIRDMKVLHTIRETPPNPAGLCALSINNDNCYLAYPGSATIGEVQVFDTINLRAANMIPAHDSPLAALAFDASGTKLATASEKGTVIRVFSIPEGQKLFEFRRGVKRCVSICSLAFSMDGMFLSASSNTETVHIFKLETVKEKPPEEPTTWTGYFGKVLMASTSYLPSQVTEMFNQGRAFATVRLPFCGHKNICSLATIQKIPRLLVGAADGYLYMYNLDPQEGGECALMKQHRLDGSLETTNEILDSASHDCPLVTQTYGAAAGKGTYVPSSPTRLAYTDDLGAVGGACLEDEASALRLDEDSEHPPMILRTD
With B2 the binding (FLAG-SEC12 [5]) was “no binding”.
